This note sets out measurements from article PMC8824340.

By UniProt entry, the sequences of proteins in these tests, tags left out. Residues count along the entry.
UniProt P23201, residues 1-200: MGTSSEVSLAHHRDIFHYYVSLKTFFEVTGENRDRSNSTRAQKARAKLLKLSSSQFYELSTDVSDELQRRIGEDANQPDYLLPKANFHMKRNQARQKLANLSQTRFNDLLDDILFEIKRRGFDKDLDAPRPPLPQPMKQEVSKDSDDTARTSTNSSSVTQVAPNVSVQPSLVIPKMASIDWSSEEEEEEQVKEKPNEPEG

Assay [1] has as its target T1, Msb3 N-terminal region (1-220), Spa2 interaction domain (S. cerevisiae) (UniProt P48566).
T1 sequence: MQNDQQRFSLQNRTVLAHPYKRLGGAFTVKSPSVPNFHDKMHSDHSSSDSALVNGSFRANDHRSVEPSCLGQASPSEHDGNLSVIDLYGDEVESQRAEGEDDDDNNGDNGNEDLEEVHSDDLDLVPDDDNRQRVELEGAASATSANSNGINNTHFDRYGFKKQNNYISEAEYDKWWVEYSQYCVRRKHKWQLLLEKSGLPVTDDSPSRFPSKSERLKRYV
The assay can be described thus: two-hybrid; N-terminal regions of Spa2 (1-200), Msb3 (1-220) and Msb4 (1-144); beta-galactosidase activity in Miller units, 3 experiments.

Assay [2] addresses T2, Msb4 N-terminal region (1-144), Spa2 interaction domain (S. cerevisiae) (UniProt Q12317).
T2 sequence: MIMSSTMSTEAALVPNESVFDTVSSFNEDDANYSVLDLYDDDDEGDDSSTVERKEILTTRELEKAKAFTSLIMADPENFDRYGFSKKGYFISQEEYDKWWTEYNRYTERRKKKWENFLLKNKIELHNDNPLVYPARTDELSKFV
The assay is described as above.

These are yes or no findings as the source states them, for the method shown. Some binding calls cover weakened binding; strength is not graded here.

“Spa2 N-terminal region (1-200), wild-type SHD (from UniProt P23201 1-200) (domain or fragment)”: the binding result in assay [1] and in assay [2] was “binds” throughout.
